These are yes or no findings as the source states them, for the method shown. In cells and extracts the contact can be indirect. Some entries that bind do so weakly or less than the wild type.
Biological target: TDP43 (endogenous, mouse testis) (mouse (endogenous in testis)) (UniProt Q921F2)
Assay: co-IP; endogenous IP from mouse testis lysate with anti-TDP43 antibody on Protein A Sepharose, 4 h at 4 °C; western blot

The chains behind the UniProt entries cited, without tags or fusion partners.
UniProt Q921F2: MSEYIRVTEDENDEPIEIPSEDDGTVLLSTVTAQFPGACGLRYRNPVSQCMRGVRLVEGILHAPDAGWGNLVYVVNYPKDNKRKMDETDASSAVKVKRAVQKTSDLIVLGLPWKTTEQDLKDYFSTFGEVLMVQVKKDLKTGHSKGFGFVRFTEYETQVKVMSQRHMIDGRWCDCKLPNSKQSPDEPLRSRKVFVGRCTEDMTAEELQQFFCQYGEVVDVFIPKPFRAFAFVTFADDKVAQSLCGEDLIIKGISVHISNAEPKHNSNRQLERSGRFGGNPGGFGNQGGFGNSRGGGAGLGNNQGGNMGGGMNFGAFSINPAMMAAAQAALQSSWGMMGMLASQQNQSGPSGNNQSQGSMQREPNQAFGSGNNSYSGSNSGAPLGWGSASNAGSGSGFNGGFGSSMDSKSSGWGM

binding: binds
B1: NAT10 (endogenous, mouse testis) (enzyme, UniProt Q8K224 1-1024)
chain: MNRKKVDNRIRILIENGVAERQRSLFVVVGDRGKDQVVILHHMLSKATVKARPSVLWCYKKELGFSSHRKKRMRQLQKKIKSGTLNLKQDDPFELFVAATNIRYCYYNETHKILGNTFGMCVLQDFEALTPNLLARTVETVEGGGLVVILLRTMNSLKQLYTMTMDVHSRYRTEAHQDVVGRFNERFILSLASCKKCLVIDDQLDILPISSHVASIEALPPQAPDENLSPAALELLELKESLQDTQPVGVLVDCCKTLDQAKAVLKFIEGISEKTLRSTVALTAARGRGKSAALGLAIAGAVAFGYSNIFVTSPSPDNLHTLFEFVFKGFDALQYQEHLDYEIVQSLNPEFNKAVIRVNVFREHRQTIQYIHPADAVKLGQAELVVIDEAAAIPLPLVKSLLGPYLVFMASTINGYEGTGRSLSLKLIQQLRQQSAQSQVSTTAENKTTTTARLASARTLHEVSLQESIRYAPGDAVEKWLNDLLCLDCLNITRIVSGCPLPEACELYYVNRDTLFCYHKASEVFLQRLMALYVASHYKNSPNDLQMLSDAPAHHLFCLLPPVPPTQNALPEVLAVVQVCLEGEISRQSILNSLSRGKKASGDLIPWTVSEQFQDPDFGGLSGGRVVRIAVHPDYQGMGYGSRALQLLQMYYEGKFPCLEEKVLETPQEIRTVSSEAVSLLEEVITPRKDLPPLLLKLNERPAERLDYLGVSYGLTPRLLKFWKRAGFVPVYLRQTPNDLTGEHSCIMLKTLADEDEAEQGAWLAAFWKDFRRRFLALLSYQFSTFSPALSLNIIQNRNVAKSALPALGREHLEALFLPYDLKRLEMYSRNMVDYHLIMDLIPAISRLYFLNQLGDLSLSAAQSALLLGIGLQHKSVDQLEKEIELPSGQLMGLFNRIIRKVVKLFNDVQEKAIEEQMVAVKDVVMEPTMKTLSDDLDEAAKEFQEKHKKEVGKLKDMDLSQYVIRGDDEEWNEVLSKAGQNASIVSLKSDKKRKLETKQEPKQSKKLKKRDNNRKDMKLKRKK

From article PMC11653668
